Reference: article PMC7500323
No constants are given. Whether binding was seen depends on the method and setting. Binding seen in cells or lysates may run through a third protein. Some entries that bind do so weakly or less than the wild type.

Chains of the proteins cited; added tags and fusions are not shown.
UniProt Q8NFU7: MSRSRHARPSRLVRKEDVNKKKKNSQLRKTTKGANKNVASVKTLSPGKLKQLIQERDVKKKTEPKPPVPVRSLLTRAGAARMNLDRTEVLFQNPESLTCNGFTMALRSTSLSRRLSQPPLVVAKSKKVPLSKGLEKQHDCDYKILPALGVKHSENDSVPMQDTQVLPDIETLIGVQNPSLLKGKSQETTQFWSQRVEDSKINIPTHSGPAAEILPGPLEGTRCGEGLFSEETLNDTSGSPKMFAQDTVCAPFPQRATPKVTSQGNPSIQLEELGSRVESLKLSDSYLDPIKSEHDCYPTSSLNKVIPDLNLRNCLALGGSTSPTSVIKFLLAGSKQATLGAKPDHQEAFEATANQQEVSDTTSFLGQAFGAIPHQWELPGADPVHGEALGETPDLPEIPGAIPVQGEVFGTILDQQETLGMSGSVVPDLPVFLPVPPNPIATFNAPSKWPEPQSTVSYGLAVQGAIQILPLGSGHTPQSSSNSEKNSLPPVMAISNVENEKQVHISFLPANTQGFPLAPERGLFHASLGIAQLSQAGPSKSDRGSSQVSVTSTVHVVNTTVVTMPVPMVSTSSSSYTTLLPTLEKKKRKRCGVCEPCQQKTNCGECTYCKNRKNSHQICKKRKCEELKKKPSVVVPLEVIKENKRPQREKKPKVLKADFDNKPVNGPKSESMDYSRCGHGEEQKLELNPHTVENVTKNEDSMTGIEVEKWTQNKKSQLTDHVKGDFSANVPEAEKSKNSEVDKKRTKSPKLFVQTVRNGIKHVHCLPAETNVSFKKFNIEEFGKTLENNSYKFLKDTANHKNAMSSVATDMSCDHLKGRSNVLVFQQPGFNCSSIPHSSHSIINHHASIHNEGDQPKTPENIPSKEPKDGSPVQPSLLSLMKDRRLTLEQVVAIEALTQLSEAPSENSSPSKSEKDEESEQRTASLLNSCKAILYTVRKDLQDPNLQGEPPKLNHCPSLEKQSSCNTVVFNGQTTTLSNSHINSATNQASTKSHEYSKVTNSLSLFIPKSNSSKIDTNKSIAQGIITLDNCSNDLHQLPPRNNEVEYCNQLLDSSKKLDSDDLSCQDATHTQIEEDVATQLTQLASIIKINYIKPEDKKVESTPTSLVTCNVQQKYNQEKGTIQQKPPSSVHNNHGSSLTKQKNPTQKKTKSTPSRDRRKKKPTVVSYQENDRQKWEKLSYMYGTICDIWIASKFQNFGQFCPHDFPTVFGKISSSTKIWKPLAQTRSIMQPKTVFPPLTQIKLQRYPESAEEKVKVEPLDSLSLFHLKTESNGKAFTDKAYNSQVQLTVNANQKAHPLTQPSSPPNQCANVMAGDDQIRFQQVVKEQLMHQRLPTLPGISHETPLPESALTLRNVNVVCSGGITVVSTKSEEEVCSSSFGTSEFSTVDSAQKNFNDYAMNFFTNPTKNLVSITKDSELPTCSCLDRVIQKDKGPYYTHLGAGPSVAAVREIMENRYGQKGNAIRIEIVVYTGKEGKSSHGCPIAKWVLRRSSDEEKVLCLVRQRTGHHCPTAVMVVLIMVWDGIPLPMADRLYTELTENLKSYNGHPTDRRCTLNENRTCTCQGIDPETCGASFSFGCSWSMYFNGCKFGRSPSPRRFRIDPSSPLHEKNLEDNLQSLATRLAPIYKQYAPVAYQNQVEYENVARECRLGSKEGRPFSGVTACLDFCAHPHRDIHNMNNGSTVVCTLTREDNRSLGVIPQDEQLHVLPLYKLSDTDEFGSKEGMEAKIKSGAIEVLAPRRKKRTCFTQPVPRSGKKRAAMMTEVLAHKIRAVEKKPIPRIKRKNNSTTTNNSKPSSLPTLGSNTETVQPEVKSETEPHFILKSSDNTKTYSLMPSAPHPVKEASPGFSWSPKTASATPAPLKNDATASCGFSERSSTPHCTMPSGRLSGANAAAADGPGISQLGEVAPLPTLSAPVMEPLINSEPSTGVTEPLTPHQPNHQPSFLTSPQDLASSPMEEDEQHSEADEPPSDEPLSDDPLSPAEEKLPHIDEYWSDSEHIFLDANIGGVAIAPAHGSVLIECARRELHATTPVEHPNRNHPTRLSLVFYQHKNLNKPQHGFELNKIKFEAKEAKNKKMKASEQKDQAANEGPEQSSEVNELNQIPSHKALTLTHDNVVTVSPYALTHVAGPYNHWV
UniProt Q99814: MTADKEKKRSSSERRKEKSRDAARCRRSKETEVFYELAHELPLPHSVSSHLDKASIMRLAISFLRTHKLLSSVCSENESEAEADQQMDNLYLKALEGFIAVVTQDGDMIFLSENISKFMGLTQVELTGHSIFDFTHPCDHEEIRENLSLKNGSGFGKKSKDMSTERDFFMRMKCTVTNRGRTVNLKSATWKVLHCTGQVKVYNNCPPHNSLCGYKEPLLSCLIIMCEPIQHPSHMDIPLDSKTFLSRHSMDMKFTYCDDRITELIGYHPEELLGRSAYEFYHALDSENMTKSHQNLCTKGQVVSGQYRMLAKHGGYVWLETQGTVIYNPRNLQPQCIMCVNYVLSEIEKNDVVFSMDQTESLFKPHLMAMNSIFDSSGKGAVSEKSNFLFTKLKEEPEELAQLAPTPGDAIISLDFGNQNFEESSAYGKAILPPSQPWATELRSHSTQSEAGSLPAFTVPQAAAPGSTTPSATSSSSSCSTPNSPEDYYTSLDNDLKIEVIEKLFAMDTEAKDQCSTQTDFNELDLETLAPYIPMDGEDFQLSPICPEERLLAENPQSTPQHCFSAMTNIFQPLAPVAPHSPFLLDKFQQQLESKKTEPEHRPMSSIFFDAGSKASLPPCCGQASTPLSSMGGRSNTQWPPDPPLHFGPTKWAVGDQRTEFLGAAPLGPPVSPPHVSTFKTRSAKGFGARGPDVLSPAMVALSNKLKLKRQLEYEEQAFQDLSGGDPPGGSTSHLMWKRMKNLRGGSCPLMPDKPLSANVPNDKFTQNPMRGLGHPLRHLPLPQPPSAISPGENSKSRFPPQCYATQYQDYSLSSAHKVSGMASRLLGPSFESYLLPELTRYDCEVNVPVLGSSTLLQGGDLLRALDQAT

Biological target: ten-eleven translocation 1 (TET1) (human (endogenous in Ishikawa cells)) (UniProt Q8NFU7)
Experiment: co-IP; hypoxia-treated ISK cells lysed in RIPA buffer with phosphatase inhibitors; 750 µl lysate with 2 µg antibody (rabbit HIF-2α, mouse HIF-1α or rabbit TET1) overnight at 4 °C; Protein G Plus/Protein A agarose 2 h at 4 °C; western blotting; rabbit and mouse IgG as negative controls

- binding: binds
Substance: hypoxia-inducible factor 2α (HIF-2α) (from UniProt Q99814 1-870)
